We go through one compound from PubChem BioAssay (Tox21).

Experiment [1] can be described thus: qHTS assay to identify aromatase inhibitors - cell viability counter screen (AID 743084).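 Further: cells stimulated with testosterone during compound exposure; nearly all actives have a fitted effect of over 55% in size.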 The following applies: MCF-7 aro ERE viability, CellTiter-Fluor, 24 h; at 70.3 µM (top of the series). (qHTS replaces the single test concentration by a dilution series.)
A short description of experiment [2]: qHTS assay to identify small molecule HDAC inhibitors - cell viability counter screen (AID 1259365). Further: nearly all actives have a fitted effect of over 50% in size. The note with it: HCT-116 viability, CellTiter-Glo ATP luminescence, 2 h; at 42.5 µM (top of the series). In a few lines:
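After overnight seeding at 1,500 cells per well, wild-type HCT-116 cultures took up compounds in DMSO for 2hr at 37 C. Viable cell content came from luminescence with CellTiter-Glo.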

What follows is the remainder of the data, with few or none of the hits. Records with an inconclusive call do not appear. Calls of active or inactive are those of the source. The call rests on the fitted dose curve; in most records, active means well fitted curve in the direction sought with a large enough effect in the repeat runs; inconclusive means weak or mixed curves; inactive means no such curve, though single readings can be large; an effect the other way counts as inactive or inconclusive.
On the % scale 0 is the no-effect control and ±100 the full control effect.

For the compound `O=C(CCCCCCC(=O)Nc1ccccc1)NO`, the results for the activity change, negative = cytotoxicity in experiment [1] and in experiment [2] were inactive: -28% and inactive: 0.79%, respectively.
